These are yes or no findings as the source states them, for the method shown. In cells and extracts the contact can be indirect. Some entries that bind do so weakly or less than the wild type. Where a sequence is shown, tags or fusion partners need not be part of it.
Experiments:
GST-BAG5 = target: T1, GST-BAG5 (UniProt Q9UL15); experiment: pull-down; 10 μg GST fusion protein on Glutathione Sepharose 4B beads incubated with 500 μg lysate (RIPA) of transfected H4 cells overnight at 4°C, three RIPA washes, Western blot; only the target purified
T1 sequence: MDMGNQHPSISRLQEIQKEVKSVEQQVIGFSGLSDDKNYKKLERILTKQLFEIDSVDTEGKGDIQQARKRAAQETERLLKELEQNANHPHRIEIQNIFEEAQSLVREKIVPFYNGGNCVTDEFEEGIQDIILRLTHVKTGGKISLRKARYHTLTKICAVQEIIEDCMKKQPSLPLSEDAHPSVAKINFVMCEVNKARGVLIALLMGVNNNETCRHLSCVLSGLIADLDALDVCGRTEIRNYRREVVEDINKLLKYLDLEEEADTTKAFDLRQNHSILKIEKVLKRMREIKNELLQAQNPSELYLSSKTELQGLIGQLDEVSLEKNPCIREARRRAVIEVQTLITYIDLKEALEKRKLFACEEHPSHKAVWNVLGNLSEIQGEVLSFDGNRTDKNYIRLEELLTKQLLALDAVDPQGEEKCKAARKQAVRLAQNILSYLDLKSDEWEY

FLAG-BAG5 = target: T2, FLAG-BAG5 (UniProt Q9UL15); experiment: co-IP; IP of FLAG-BAG5 from lysates of H4 cells transfected with FLAG-BAG5 and/or p62-HA; blots with anti-HA and anti-FLAG
T2 sequence: T1 sequence

binding (GST-BAG5) | binding (FLAG-BAG5) | Substance
no binding | – | p62-N-HA (from UniProt Q13501 1-102) (domain or fragment)
binds | – | p62-C-HA (from UniProt Q13501 103-440) (domain or fragment)
binds | binds | p62-HA (from UniProt Q13501 1-440)
